# Reference: the supplement of paper PMC10849652
# Protein sequences, listed by entry. Tags and fused reporters are not part of them. Lines headed by an entry give the natural chain unless they say otherwise; changes in a name come on top.
# UniProt P49336: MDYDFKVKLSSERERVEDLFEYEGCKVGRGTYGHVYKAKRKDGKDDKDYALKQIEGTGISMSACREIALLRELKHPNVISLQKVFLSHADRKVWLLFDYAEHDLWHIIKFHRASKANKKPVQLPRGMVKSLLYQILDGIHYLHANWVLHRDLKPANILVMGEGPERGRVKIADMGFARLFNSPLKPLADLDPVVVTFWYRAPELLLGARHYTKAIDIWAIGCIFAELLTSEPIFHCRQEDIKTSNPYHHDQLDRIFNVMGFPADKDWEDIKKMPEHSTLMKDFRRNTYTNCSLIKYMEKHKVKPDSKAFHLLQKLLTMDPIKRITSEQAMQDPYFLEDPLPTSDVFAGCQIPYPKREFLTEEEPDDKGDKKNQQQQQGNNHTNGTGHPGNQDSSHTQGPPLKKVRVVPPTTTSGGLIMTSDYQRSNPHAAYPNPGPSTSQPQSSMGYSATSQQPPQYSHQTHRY
# UniProt O76039: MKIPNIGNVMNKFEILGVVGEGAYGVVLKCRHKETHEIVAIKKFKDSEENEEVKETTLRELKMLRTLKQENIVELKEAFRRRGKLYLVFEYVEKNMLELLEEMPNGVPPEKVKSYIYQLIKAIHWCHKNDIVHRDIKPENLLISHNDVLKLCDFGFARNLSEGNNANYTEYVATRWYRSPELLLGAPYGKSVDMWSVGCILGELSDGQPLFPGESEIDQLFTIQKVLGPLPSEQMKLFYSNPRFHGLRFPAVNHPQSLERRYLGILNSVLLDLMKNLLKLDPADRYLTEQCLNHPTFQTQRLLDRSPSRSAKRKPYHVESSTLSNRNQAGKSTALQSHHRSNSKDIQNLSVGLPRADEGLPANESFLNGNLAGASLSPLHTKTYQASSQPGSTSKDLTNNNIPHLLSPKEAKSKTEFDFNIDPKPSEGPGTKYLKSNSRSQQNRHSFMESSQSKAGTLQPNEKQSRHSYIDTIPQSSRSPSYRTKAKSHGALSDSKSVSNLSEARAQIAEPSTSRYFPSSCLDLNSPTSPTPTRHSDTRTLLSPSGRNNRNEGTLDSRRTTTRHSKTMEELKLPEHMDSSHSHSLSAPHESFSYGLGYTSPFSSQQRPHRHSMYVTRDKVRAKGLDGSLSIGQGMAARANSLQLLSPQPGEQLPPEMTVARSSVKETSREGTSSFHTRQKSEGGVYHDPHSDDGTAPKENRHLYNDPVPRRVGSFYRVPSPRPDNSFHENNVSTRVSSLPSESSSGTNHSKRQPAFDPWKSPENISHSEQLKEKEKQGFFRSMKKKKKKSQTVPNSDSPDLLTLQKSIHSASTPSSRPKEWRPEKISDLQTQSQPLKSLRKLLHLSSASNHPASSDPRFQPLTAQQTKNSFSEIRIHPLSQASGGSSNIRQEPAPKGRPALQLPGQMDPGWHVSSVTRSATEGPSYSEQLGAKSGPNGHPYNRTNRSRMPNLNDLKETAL
# UniProt Q00537: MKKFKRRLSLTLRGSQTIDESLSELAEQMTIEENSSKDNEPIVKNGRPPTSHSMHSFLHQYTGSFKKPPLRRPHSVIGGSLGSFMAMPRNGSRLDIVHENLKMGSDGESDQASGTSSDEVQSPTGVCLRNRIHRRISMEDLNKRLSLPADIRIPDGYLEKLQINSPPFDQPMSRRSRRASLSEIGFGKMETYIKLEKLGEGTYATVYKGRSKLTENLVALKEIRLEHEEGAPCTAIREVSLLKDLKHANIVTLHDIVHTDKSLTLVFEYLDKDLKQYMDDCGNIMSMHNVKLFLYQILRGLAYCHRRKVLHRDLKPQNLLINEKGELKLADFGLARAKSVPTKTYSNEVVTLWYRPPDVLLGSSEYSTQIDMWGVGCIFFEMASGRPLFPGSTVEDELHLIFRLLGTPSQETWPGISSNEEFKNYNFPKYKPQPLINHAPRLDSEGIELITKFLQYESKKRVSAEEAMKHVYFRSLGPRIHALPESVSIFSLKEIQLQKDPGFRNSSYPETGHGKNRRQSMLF
# UniProt A8MTT3: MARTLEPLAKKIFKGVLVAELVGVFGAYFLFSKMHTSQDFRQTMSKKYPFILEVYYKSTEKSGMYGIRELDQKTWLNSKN
# UniProt Q86XR8: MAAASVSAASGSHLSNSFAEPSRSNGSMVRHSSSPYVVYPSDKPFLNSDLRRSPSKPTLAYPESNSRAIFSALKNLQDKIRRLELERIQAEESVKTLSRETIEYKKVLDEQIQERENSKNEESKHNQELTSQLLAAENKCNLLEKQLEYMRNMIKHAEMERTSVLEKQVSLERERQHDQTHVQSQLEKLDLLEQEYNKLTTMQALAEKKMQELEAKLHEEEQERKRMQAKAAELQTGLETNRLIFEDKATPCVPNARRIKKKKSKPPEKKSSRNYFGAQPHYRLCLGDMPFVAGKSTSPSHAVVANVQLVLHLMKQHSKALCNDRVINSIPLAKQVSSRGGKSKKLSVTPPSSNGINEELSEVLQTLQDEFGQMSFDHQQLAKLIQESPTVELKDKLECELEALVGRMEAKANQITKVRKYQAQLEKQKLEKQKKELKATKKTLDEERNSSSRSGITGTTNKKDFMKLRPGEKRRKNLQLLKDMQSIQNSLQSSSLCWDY
# UniProt Q16667, whole entry, looked up: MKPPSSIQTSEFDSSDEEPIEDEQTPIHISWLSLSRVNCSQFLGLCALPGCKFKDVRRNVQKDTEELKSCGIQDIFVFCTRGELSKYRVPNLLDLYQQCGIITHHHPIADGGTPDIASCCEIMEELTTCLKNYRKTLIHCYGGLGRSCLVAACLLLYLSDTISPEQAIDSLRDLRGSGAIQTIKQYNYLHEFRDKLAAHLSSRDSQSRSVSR
# UniProt Q8IYX8: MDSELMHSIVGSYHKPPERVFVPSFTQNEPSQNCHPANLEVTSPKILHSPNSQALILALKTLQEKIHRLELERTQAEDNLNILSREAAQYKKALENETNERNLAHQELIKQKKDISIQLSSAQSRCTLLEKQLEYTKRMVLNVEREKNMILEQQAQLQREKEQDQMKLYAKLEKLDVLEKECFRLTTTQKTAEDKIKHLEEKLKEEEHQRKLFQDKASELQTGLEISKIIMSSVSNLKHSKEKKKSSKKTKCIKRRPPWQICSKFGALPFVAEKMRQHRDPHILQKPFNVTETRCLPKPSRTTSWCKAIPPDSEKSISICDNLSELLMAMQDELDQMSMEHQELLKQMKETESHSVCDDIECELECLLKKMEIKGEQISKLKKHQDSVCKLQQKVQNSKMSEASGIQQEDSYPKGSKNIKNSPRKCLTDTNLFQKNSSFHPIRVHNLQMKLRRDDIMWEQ
# UniProt O94986: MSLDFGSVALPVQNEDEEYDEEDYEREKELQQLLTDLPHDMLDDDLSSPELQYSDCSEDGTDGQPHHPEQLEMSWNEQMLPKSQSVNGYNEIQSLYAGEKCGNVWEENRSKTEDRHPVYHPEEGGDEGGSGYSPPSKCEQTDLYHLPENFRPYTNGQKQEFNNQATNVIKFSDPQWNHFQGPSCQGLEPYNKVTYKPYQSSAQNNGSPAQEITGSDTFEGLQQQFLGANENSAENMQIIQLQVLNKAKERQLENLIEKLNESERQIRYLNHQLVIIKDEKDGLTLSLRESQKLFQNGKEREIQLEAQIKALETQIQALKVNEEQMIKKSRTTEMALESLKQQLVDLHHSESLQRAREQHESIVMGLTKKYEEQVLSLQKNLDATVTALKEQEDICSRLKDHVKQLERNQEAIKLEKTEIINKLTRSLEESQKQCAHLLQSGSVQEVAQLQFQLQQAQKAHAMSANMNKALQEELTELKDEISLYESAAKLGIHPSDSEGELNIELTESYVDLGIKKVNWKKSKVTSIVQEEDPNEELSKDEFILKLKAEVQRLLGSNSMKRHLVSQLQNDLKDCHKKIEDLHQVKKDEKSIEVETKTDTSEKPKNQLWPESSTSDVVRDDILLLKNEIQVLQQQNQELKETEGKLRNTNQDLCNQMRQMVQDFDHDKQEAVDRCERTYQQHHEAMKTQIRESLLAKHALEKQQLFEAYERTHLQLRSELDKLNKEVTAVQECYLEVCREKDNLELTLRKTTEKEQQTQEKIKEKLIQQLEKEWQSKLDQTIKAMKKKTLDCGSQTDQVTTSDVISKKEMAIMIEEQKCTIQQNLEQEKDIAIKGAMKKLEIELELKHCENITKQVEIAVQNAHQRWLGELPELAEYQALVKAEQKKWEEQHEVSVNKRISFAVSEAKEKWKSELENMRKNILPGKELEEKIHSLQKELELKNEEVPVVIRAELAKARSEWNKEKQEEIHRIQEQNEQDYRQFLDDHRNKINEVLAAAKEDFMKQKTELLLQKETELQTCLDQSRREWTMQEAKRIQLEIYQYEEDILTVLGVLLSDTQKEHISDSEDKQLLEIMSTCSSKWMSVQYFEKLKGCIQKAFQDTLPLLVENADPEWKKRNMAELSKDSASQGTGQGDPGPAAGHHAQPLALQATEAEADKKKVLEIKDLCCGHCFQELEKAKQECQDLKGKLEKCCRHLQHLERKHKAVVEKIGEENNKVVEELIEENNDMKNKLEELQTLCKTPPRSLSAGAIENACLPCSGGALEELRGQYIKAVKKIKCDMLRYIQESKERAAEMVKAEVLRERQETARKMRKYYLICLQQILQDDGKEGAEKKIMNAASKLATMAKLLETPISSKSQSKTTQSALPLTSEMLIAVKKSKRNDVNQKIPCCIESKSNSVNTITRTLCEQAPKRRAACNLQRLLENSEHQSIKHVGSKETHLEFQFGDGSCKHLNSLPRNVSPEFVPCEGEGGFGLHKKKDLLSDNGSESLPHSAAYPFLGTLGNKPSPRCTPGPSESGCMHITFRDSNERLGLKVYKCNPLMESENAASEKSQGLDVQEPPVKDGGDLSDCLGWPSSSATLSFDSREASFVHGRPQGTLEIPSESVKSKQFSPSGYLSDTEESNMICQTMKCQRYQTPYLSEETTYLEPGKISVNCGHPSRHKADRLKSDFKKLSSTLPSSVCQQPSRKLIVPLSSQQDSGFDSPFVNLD
# UniProt Q5TB80: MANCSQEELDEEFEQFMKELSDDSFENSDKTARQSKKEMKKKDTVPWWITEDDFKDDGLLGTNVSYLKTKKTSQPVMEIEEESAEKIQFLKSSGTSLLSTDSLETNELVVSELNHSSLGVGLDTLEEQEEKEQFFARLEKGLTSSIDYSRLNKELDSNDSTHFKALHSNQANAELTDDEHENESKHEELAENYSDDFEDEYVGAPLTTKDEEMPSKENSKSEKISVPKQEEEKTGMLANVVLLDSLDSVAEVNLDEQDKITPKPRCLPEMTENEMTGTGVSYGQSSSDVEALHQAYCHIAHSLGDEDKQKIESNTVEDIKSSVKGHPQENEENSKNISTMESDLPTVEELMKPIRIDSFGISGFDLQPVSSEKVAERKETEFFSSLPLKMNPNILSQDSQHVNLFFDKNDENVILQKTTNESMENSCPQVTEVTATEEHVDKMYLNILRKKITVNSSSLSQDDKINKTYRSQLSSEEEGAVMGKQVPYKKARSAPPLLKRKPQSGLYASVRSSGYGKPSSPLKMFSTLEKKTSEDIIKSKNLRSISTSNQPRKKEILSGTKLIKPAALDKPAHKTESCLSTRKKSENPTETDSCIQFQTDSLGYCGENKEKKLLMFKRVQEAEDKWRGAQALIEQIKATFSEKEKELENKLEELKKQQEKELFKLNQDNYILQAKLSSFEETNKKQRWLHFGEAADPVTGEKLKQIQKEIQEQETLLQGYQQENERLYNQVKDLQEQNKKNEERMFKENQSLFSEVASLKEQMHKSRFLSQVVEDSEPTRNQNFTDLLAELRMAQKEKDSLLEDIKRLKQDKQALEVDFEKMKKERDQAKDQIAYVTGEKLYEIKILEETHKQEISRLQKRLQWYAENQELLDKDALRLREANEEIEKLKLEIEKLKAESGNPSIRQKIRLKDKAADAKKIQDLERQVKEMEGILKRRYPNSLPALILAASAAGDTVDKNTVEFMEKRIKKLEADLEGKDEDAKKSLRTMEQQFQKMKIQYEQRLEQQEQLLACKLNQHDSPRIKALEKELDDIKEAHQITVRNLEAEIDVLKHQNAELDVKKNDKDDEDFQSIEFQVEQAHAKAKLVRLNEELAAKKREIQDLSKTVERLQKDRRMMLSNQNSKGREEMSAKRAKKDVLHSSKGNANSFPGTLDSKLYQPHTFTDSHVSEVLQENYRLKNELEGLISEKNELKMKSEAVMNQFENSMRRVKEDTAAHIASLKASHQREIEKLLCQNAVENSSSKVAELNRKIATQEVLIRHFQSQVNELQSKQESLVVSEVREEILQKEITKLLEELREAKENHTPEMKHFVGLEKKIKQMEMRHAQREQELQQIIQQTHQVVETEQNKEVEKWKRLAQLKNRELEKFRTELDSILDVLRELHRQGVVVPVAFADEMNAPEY
# UniProt O43822: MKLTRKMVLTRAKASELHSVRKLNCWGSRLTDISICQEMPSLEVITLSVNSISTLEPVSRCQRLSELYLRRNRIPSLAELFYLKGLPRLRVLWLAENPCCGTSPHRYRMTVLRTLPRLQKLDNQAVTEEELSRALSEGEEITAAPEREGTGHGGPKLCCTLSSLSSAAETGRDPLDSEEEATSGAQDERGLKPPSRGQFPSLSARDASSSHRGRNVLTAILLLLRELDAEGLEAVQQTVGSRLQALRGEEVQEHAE
# The other results are listed elsewhere or left out.
# Assays:
# Assay in all cases: log2 fold change, soluble protein after heating vs DMSO (PISA); higher = thermal stabilisation; K562 lysate, 10 uM; active = over 0.2 and 3.5 SD of the protein, either way, in both replicates (recomputed)
# [1] = compound: CS(=O)(=O)CCNCc1ccc(-c2ccc3ncnc(Nc4ccc(OCc5cccc(F)c5)c(Cl)c4)c3c2)o1 [lapatinib]
# Summary of the method: (§1)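 A 30 min treatment with 10 μM compound was applied to crude K562 extract at 1 mg/mL protein in PBS pH 7.4 with 1 mM MgCl2. Heating for 3 min spanned 48°C-58°C, after which aliquots were pooled, adjusted to 0.5% NP-40 at 4°C and spun at 21,000xg for 90 min. TMTpro 16plex LC-MS/MS of the supernatant, with channel sums equalised, gave values recorded as log-two fold change in thermal stability against solvent controls, from duplicates.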
# [2] = compound: C[C@@H](Oc1cc(-c2cnn(C3CCNCC3)c2)cnc1N)c1c(Cl)ccc(F)c1Cl [crizotinib]
# Summary of the method: as §1
# [3] = compound: C[C@H](C1=CC=C(C=C1)C(=O)NC2=C3C=CNC3=NC=C2)N
# Summary of the method: as §1
# [4] = compound: C[C@H](Nc1ncnc2nc[nH]c12)c1cc2cccc(Cl)c2c(=O)n1-c1ccccc1 [duvelisib]
# Summary of the method: as §1
# [5] = compound: Cc1cc(Nc2cc(CN3CCOCC3)c3nc(C)c(Cc4ccc(Cl)cc4F)n3n2)n[nH]1 [gandotinib]
# Summary of the method: as §1
# [6] = compound: Cc1cc(Nc2cc(N3CCN(C)CC3)nc(Sc3ccc(NC(=O)C4CC4)cc3)n2)n[nH]1 [tozasertib]
# Summary of the method: as §1
# [7] = compound: Cc1ccc(-n2nc(C(C)(C)C)cc2NC(=O)Nc2ccc(OCCN3CCOCC3)c3ccccc23)cc1 [doramapimod]
# Summary of the method: as §1
# [8] = compound: Cc1cccc(CC(=O)N2CCc3c2ccc(-c2cn(C)c4ncnc(N)c24)c3F)n1
# Summary of the method: as §1
# [9] = compound: CS(=O)(=O)N1CCN(Cc2cc3nc(-c4cccc5[nH]ncc45)nc(N4CCOCC4)c3s2)CC1 [pictilisib]
# Summary of the method: as §1
# [10] = compound: Cc1ccc(NC(=O)c2ccc(CN3CC[C@H](N(C)C)C3)c(C(F)(F)F)c2)cc1Nc1nccc(-c2cncnc2)n1 [bafetinib]
# Summary of the method: as §1
Target,log2 fold change [1],log2 fold change [2],log2 fold change [3],log2 fold change [4],log2 fold change [5],log2 fold change [6],log2 fold change [7],log2 fold change [8],log2 fold change [9],log2 fold change [10]
CENPP (UniProt Q6IPU0),inactive: 0.067,inactive: 0.002,inactive: -0.02,inactive: 0.029,inactive: -0.102,inactive: 0.135,inactive: 0.022,inactive: 0.04,–,–
CDK8 (UniProt P49336),inactive: -0.035,inactive: -0.032,inactive: 0.129,inactive: -0.075,inactive: -0.065,–,inactive: 0.322,inactive: 0.119,inactive: -0.033,inactive: -0.043
CDKL5 (UniProt O76039),inactive: -0.207,inactive: -0.167,inactive: -0.128,inactive: 0.073,inactive: 0.537,inactive: 0.024,inactive: -0.057,inactive: -0.073,–,–
CDNF (UniProt Q49AH0),inactive: -0.05,inactive: -0.061,–,–,–,inactive: 0.089,inactive: 0.05,–,–,–
CDC37 (UniProt K7EKQ2),inactive: -0.082,inactive: 0.092,inactive: 0.032,inactive: 0.025,inactive: 0.105,–,inactive: -0.158,inactive: -0.322,–,–
CDK2 (UniProt P24941),inactive: -0.026,inactive: 0,–,inactive: -0.026,active: 0.403,inactive: 0.008,inactive: 0.004,inactive: -0.001,inactive: 0.028,inactive: 0.042
CDK17 isoform 2 (UniProt Q00537),–,inactive: 0.026,inactive: 0.096,inactive: -0.04,inactive: 0.042,inactive: -0.113,inactive: 0.15,inactive: -0.359,inactive: -0.008,inactive: -0.033
CEBPZOS (UniProt A8MTT3),inactive: -0.001,inactive: -0.025,inactive: -0.352,inactive: 0.035,inactive: -0.044,inactive: 0.039,inactive: 0.177,active: 0.203,–,–
CEP63 (UniProt Q96MT8),inactive: -0.12,–,inactive: -0.463,inactive: 0.031,inactive: 0.211,inactive: -0.016,–,inactive: 0.191,–,–
CEP83 (UniProt Q9Y592),inactive: -0.089,inactive: -0.047,inactive: -0.023,–,inactive: 0.005,–,inactive: 0.033,inactive: -0.065,–,–
CDAN1 (UniProt H3BPZ6),–,inactive: 0.118,–,–,–,–,inactive: 0.059,–,–,–
CEP128 (UniProt Q6ZU80),–,–,active: -1.2,inactive: -0.022,inactive: 0.331,inactive: 0.027,–,inactive: 0.297,inactive: -0.123,inactive: -0.043
CD9 (UniProt P21926),–,–,inactive: 0.044,inactive: 0.109,inactive: 0.108,inactive: -0.148,–,inactive: 0.138,–,–
CDADC1 (UniProt Q9BWV3),–,inactive: 0.01,–,–,–,–,inactive: 0.087,–,–,–
CDPF1 (UniProt Q6NVV7),–,inactive: 0.047,–,–,–,–,inactive: 0.05,–,–,–
CEP68 (UniProt Q76N32),–,–,–,inactive: 0.047,–,inactive: -0.03,–,–,–,–
CDK5RAP1 (UniProt Q96SZ6),–,inactive: -0.027,inactive: 0.051,inactive: -0.044,inactive: 0.071,inactive: 0.015,inactive: 0,inactive: -0.009,inactive: 0.184,inactive: 0.018

# Part of the list above, showing only log2 fold change [8].
Target	log2 fold change [8]
CEBPZOS (UniProt A8MTT3)	active: 0.203
CEP63 (UniProt Q96MT8)	inactive: 0.191

# (list continues)

Target,log2 fold change [1],log2 fold change [2],log2 fold change [3],log2 fold change [4],log2 fold change [5],log2 fold change [6],log2 fold change [7],log2 fold change [8],log2 fold change [9],log2 fold change [10]
CHAC1 (UniProt Q9BUX1),–,inactive: -0.036,–,inactive: 0.127,–,–,inactive: -0.024,–,inactive: 0.395,inactive: -0.137
CFL1 (UniProt E9PQB7),–,inactive: -0.22,–,–,–,–,inactive: 0.118,–,–,–
CDC37 (UniProt K7EL68),–,inactive: 0.021,inactive: 0.011,–,inactive: -0.038,–,inactive: -0.035,inactive: 0.003,inactive: -0.211,inactive: -0.096
CEP85L isoform 4 (UniProt Q5SZL2),–,inactive: -0.011,–,–,–,–,inactive: 0.013,–,–,–
CDCA8 (UniProt Q53HL2),–,–,inactive: 0.319,inactive: 0.031,inactive: -0.031,inactive: -0.047,–,inactive: -0.128,inactive: 0.072,inactive: -0.217
CEP170 isoform 2 (UniProt Q5SW79),–,–,inactive: -0.058,inactive: -0.082,inactive: -0.004,inactive: 0.077,–,inactive: 0.062,–,–
CDC42EP2 (UniProt O14613),–,inactive: -0.023,–,–,–,–,inactive: -0.072,–,–,–
CEP57 (UniProt Q86XR8),–,–,inactive: 0.098,–,inactive: 0.019,inactive: 0.019,–,inactive: 0.036,–,–
CFLAR (UniProt O15519),–,inactive: -0.023,inactive: 0,inactive: -0.217,inactive: 0.033,inactive: 0.003,inactive: 0.017,inactive: -0.113,–,–
CDT1 (UniProt Q9H211),–,inactive: -0.079,inactive: -0.086,inactive: 0.035,inactive: -0.043,inactive: -0.067,inactive: -0.016,inactive: 0.042,inactive: -0.01,inactive: 0.116
CEP78 isoform 2 (UniProt Q5JTW2),–,inactive: -0.036,–,inactive: 0.099,–,–,inactive: 0.025,–,–,–
CDKN3 (UniProt Q16667),–,–,inactive: 0.039,–,inactive: -0.048,inactive: 0.134,–,inactive: 0.003,inactive: -0.023,inactive: -0.042
CEP57L1 (UniProt Q8IYX8),–,inactive: 0.056,inactive: -0.039,inactive: -0.004,inactive: -0.022,inactive: -0.07,inactive: 0.05,inactive: 0.073,inactive: 0.076,inactive: -0.184
CEP152 (UniProt O94986),–,inactive: -0.22,inactive: -0.089,inactive: -0.017,inactive: 0.006,inactive: -0.114,inactive: -0.057,inactive: 0.058,inactive: -0.013,inactive: -0.071
CENPB (UniProt P07199),–,–,–,–,–,inactive: 0.201,–,–,–,–
CEP162 (UniProt Q5TB80),–,inactive: 0.013,–,–,–,–,inactive: 0.002,–,–,–
CFAP410 (UniProt O43822),–,inactive: -0.095,–,–,–,inactive: 0.01,inactive: 0.082,–,inactive: -0.045,inactive: -0.027
